Test results reported in PubChem BioAssay AID190 (DTP/NCI, 2004).
The list does not hold the whole screen: it gathers tests that were run many times, whatever their T/C, doses with no T/C, and many T/C values between a quarter and a half above the control. Other doses and runs of a compound stand elsewhere. T/C gives the treated animals as a percentage of the vehicle group. Some entries give survivors of the animals treated and no T/C: the source files T/C as zero there, which appears to mark a toxic dose or a test without result, not a measured value. Some survivor counts are full or nearly so, which does not show that the dose was tolerated: the source hardly ever lists a survival T/C far under the control, and the zero likely stands for such cases as well. Survivors were counted at the toxicity check, usually on the fifth day, unless a day is given; later deaths do not show. Schedules are NCI's codes, taken here to give the interval after Q, in days (D) or hours (H), and the number of doses after X. Some entries were tested several times; the results are listed from low to high. Where survival is the endpoint, this PubChem deposit counts one and a half times the control or more as active, and values a quarter to a half above the control carry no call in these data; other NCI protocols may use other cut-offs. Some T/C values carry the count of animals alive at the toxicity check (mostly the fifth day); where none is given, no animal had died by that day. Brackets with × count equal records among those shown.

System: AKR/Lw mice, AKR lymphoma ip, median survival T/C
Experiment: NCI In Vivo Anticancer Drug Screen. Data for tumor model Lymphoma AKR (Transplanted) (intraperitoneal) in AKR/Lw mice
Details: T/C endpoint: median survival time, higher T/C = longer survival
Experimental: The antitumor activity of compounds was measured in mice bearing transplantable tumors. Survival or tumor size were measured and the results are expressed as the measurement made in the treated group (T) divided by the measurement made in the vehicle treated control group (C). The tumor model used in this assay is Lymphoma AKR (Transplanted) (intraperitoneal) in AKR/Lw mice

[1] = dose: 20.0 mg/kg/injection, schedule: Q01DX009 (ip), vehicle: saline
[2] = dose: 30.0 mg/kg/injection, schedule: Q01DX009 (ip), vehicle: saline
[3] = dose: 30.0 mg/kg/injection, schedule: Q04DX003 (ip), vehicle: saline
[4] = dose: 35.0 mg/kg/injection, schedule: Q01DX009 (ip), vehicle: saline
[5] = dose: 50.0 mg/kg/injection, schedule: Q01DX009 (ip), vehicle: saline
[6] = dose: 50.0 mg/kg/injection, schedule: Q04DX003 (ip), vehicle: saline
[7] = dose: 100.0 mg/kg/injection, schedule: Q01DX009 (ip), vehicle: saline
[8] = dose: 300.0 mg/kg/injection, schedule: Q01DX001 (ip), vehicle: saline
[9] = dose: 500.0 mg/kg/injection, schedule: Q01DX001 (ip), vehicle: saline
[10] = dose: 600.0 mg/kg/injection, schedule: Q01DX001 (ip), vehicle: saline

In the case of O=c1[nH]c(=O)n(C2CC(O)C(CO)O2)cc1F (stereo not drawn), the survivor count (dose: 5.0 mg/kg/injection, schedule: Q01DX009 (ip), vehicle: saline) was 10 of 10, the survivor count (dose: 6.2 mg/kg/injection, schedule: Q04DX003 (ip), vehicle: saline) was 10 of 10 and the survivor count (dose: 10.0 mg/kg/injection, schedule: Q01DX009 (ip), vehicle: saline) was 10 of 10. The T/C (dose: 12.5 mg/kg/injection, schedule: Q01DX010 (ip), vehicle: saline) was 135 % of control, the T/C (dose: 15.0 mg/kg/injection, schedule: Q01DX009 (ip), vehicle: saline) was 125 % of control and the survivor count (dose: 15.0 mg/kg/injection, schedule: Q04DX003 (ip), vehicle: saline) was 10 of 10. For the same compound, the T/C [1] was 86, 110 [8 of 10 alive], 121 % of control, the survivor count [1] was 9 of 10 and the T/C (dose: 25.0 mg/kg/injection, schedule: Q01DX009 (ip), vehicle: saline) was 100, 106, 108 [9 of 10 alive], 131, 137 % of control. For the same compound, the T/C (dose: 25.0 mg/kg/injection, schedule: Q01DX010 (ip), vehicle: saline) was 129 % of control, the T/C (dose: 25.0 mg/kg/injection, schedule: Q01DX015 (ip), vehicle: saline) was 139 % of control and the T/C (dose: 25.0 mg/kg/injection, schedule: Q04DX003 (ip), vehicle: saline) was 132 % of control. For the same compound, the T/C [2] was 125 and 131 % of control, the survivor count [2] was 10 of 10 and the T/C [3] was 92, 97, 100, 118 % of control. For the same compound, the survivor count [3] was 9 of 10 and 10 of 10, the T/C [4] was 143 % of control and the survivor count [4] was 9 of 10. For the same compound, the T/C [5] was 113, 115, 116 [9 of 10 alive], 130, 150 % of control, the survivor count [5] was 10 of 10 and the survivor count (dose: 50.0 mg/kg/injection, schedule: Q01DX010 (ip), vehicle: saline) was 9 of 10. For the same compound, the T/C [6] was 103 and 104 % of control, the survivor count [6] was 9 of 10 and 10 of 10 and the survivor count (dose: 60.0 mg/kg/injection, schedule: Q01DX009 (ip), vehicle: saline) was 10 of 10. The T/C (dose: 60.0 mg/kg/injection, schedule: Q04DX003 (ip), vehicle: saline, evaluated on day 45) was 94, 104, 107, 127 % of control, the T/C (dose: 60.0 mg/kg/injection, schedule: Q04DX003 (ip), vehicle: saline, evaluated on day 60) was 86 % of control and the survivor count (dose: 60.0 mg/kg/injection, schedule: Q04DX003 (ip), vehicle: saline) was 10 of 10. The survivor count (dose: 75.0 mg/kg/injection, schedule: Q01DX009 (ip), vehicle: saline) was 10 of 10, the survivor count (dose: 75.0 mg/kg/injection, schedule: Q01DX010 (ip), vehicle: saline) was 10 of 10 and the survivor count (dose: 75.0 mg/kg/injection, schedule: Q01DX015 (ip), vehicle: saline) was 10 of 10. For the same compound, the T/C [7] was 86 (2×) and 123 % of control, the survivor count [7] was 10 of 10 and the survivor count (dose: 100.0 mg/kg/injection, schedule: Q01DX015 (ip), vehicle: saline) was 10 of 10. The T/C (dose: 120.0 mg/kg/injection, schedule: Q04DX003 (ip), vehicle: saline, evaluated on day 45) was 100, 105, 111, 117 % of control, the T/C (dose: 120.0 mg/kg/injection, schedule: Q04DX003 (ip), vehicle: saline, evaluated on day 60) was 86 and 107 % of control and the survivor count (dose: 200.0 mg/kg/injection, schedule: Q01DX009 (ip), vehicle: saline) was 10 of 10. For the same compound, the T/C (dose: 200.0 mg/kg/injection, schedule: Q04DX003 (ip), vehicle: saline) was 100, 115, 117, 129 % of control, the T/C (dose: 240.0 mg/kg/injection, schedule: Q01DX001 (ip), vehicle: saline) was 133 % of control and the T/C [8] was 112, 128, 141 % of control. For the same compound, the survivor count [8] was 10 of 10, the survivor count (dose: 300.0 mg/kg/injection, schedule: Q04DX003 (ip), vehicle: saline) was 10 of 10 and the T/C (dose: 400.0 mg/kg/injection, schedule: Q01DX001 (ip), vehicle: saline) was 127, 130, 136, 148 % of control. For the same compound, the survivor count (dose: 400.0 mg/kg/injection, schedule: Q04DX003 (ip), vehicle: saline) was 10 of 10, the T/C [9] was 129 % of control and the survivor count [9] was 9 of 10. For the same compound, the T/C [10] was 118 [9 of 10 alive], 131, 150 % of control and the survivor count [10] was 10 of 10.
For O=NN(CCCl)C(=O)N[C@H]1CCCC[C@@H]1Cl, the T/C (dose: 10.0 mg/kg/injection, schedule: Q04DX004 (ip), vehicle: Klucel (hydroxypropylcellulose) (HPC)) was 135 % of control, the T/C (dose: 10.0 mg/kg/injection, schedule: Q04DX004 (ip), vehicle: saline) was 135 % of control and the T/C (dose: 20.0 mg/kg/injection, schedule: Q04DX004 (ip), vehicle: saline) was 146 % of control. For the same compound, the survivor count (dose: 40.0 mg/kg/injection, schedule: Q04DX004 (ip), vehicle: Klucel (hydroxypropylcellulose) (HPC)) was 9 of 10, the survivor count (dose: 40.0 mg/kg/injection, schedule: Q04DX004 (ip), vehicle: saline) was 10 of 10 and the survivor count (dose: 80.0 mg/kg/injection, schedule: Q04DX004 (ip), vehicle: saline) was 10 of 10.
